PubChem BioAssay AID330 (DTP/NCI, 2004)
The list shows only some results of the screen, not a fair sample: it covers a few groups of compounds. Other doses and runs of a compound may be missing. T/C is the treated group as % of the vehicle group. Some doses have a count of surviving animals in place of a T/C: the source holds a T/C of zero for them, seemingly a mark for toxic or unscored doses. Some doses without a T/C left all or most animals alive at the check, yet need not have been tolerated: the source hardly ever lists a survival T/C far under the control, and the zero likely stands for such cases as well. Survivors were counted at the toxicity check, usually on the fifth day, unless a day is given; later deaths do not show. Schedule codes are those of the source, read here as Q, the interval in days (D) or hours (H), X, the number of doses. For survival time, this PubChem deposit counts one and a half times the control or more as active, and values a quarter to a half above the control carry no call in these data; other NCI protocols may use other cut-offs. Some T/C values are followed by the survivors on the day toxicity was checked, most often the fifth; without a count or a note in brackets, all were alive then. Some doses were run more than once; their values stand side by side, smallest first. Some T/C values are marked as having no survivor count here; that says nothing about deaths at the dose. Some metal complexes and salts are drawn in pieces, as in the source, so charges may not balance.

Test system: P388 leukemia ip, CD2F1 mice, survival T/C
Assay: NCI In Vivo Anticancer Drug Screen. Data for tumor model P388 Leukemia (intraperitoneal) in CD2F1 (CDF1) mice
Details: T/C endpoint: median survival time, higher T/C = longer survival
[1] = dose: 12.5 mg/kg/injection, schedule: Q01DX009 (ip), vehicle: Klucel (hydroxypropylcellulose) (HPC)
[2] = dose: 25.0 mg/kg/injection, schedule: Q01DX009 (ip), vehicle: Klucel (hydroxypropylcellulose) (HPC)
[3] = dose: 50.0 mg/kg/injection, schedule: Q01DX009 (ip), vehicle: Klucel (hydroxypropylcellulose) (HPC)
[4] = dose: 100.0 mg/kg/injection, schedule: Q01DX009 (ip), vehicle: Klucel (hydroxypropylcellulose) (HPC)
[5] = dose: 200.0 mg/kg/injection, schedule: Q01DX009 (ip), vehicle: Klucel (hydroxypropylcellulose) (HPC)
[6] = dose: 50.0 mg/kg/injection, schedule: Q01DX009 (ip), vehicle: saline
[7] = dose: 100.0 mg/kg/injection, schedule: Q01DX009 (ip), vehicle: saline
[8] = dose: 200.0 mg/kg/injection, schedule: Q01DX009 (ip), vehicle: saline

## CN1CCC2(CC1)NC1CCN(C)CC1S2 (configuration not stated)
dose: 60.0 mg/kg/injection, schedule: Q01DX005 (ip), vehicle: saline with Tween-80
  T/C: 108 % of control
dose: 120.0 mg/kg/injection, schedule: Q01DX005 (ip), vehicle: saline with Tween-80
  T/C: 111 % of control [5 of 6 alive]
dose: 240.0 mg/kg/injection, schedule: Q01DX005 (ip), vehicle: saline with Tween-80
  survivor count: 0 of 6

## Nc1ccc(S(=O)(=O)N(CCCl)CCCl)cc1
[1]
  T/C: 95 [5 of 6 alive] and 108 % of control
[2]
  T/C: 95 [5 of 6 alive] and 101 % of control
[3]
  T/C: 95 and 127 % of control

## CC1(CCC2(C)N=C(NN=C(CCl)CCl)SP2(=O)Nc2ncccn2)N=C(NN=C(CCl)CCl)SP1(=O)Nc1ncccn1 (configuration not stated)
dose: 60.0 mg/kg/injection, schedule: Q01DX005 (ip), vehicle: saline
  T/C: 106 % of control
dose: 120.0 mg/kg/injection, schedule: Q01DX005 (ip), vehicle: saline
  T/C: 95 % of control [4 of 6 alive]
dose: 240.0 mg/kg/injection, schedule: Q01DX005 (ip), vehicle: saline
  survivor count: 0 of 6

## C[N+](CCCl)(CCCl)Cc1ccccc1
dose: 6.25 mg/kg/injection, schedule: Q01DX009 (ip), vehicle: alcohol
  T/C: 90 % of control
dose: 12.5 mg/kg/injection, schedule: Q01DX009 (ip), vehicle: alcohol
  T/C: 104 % of control
dose: 25.0 mg/kg/injection, schedule: Q01DX009 (ip), vehicle: alcohol
  T/C: 104 % of control

## CC(C)OP(C)(=O)O.[Ti]
[4]
  T/C: 94 % of control [survivor count not shown]
[5]
  T/C: 100 % of control [survivor count not shown]
dose: 400.0 mg/kg/injection, schedule: Q01DX009 (ip), vehicle: Klucel (hydroxypropylcellulose) (HPC)
  T/C: 93 % of control [survivor count not shown]

## O=c1c2c3c(sc2nc2n1CC(CBr)S2)CCCC3 (configuration not stated)
[3]
  T/C: 93 % of control
[4]
  T/C: 99 % of control
[5]
  T/C: 88 % of control

## NC(CCc1ccc(N(CCCl)CCCl)cc1)C(=O)O (configuration not stated)
dose: 0.78 mg/kg/injection, schedule: Q01DX009 (ip), vehicle: Klucel (hydroxypropylcellulose) (HPC)
  T/C: 161 % of control
dose: 1.56 mg/kg/injection, schedule: Q01DX009 (ip), vehicle: Klucel (hydroxypropylcellulose) (HPC)
  T/C: 160 % of control
dose: 3.13 mg/kg/injection, schedule: Q01DX009 (ip), vehicle: Klucel (hydroxypropylcellulose) (HPC)
  T/C: 211 % of control [5 of 6 alive]
dose: 6.25 mg/kg/injection, schedule: Q01DX009 (ip), vehicle: Klucel (hydroxypropylcellulose) (HPC)
  T/C: 89 and 204 % of control
[1]
  survivor count: 6 of 6
[2]
  survivor count: 2 of 6

## COP(=O)(C=[N+]=[N-])OC
dose: 12.5 mg/kg/injection, schedule: Q01DX009 (ip), vehicle: water
  T/C: 108 % of control
dose: 25.0 mg/kg/injection, schedule: Q01DX009 (ip), vehicle: water
  T/C: 106 % of control
dose: 50.0 mg/kg/injection, schedule: Q01DX009 (ip), vehicle: water
  T/C: 96 % of control
dose: 100.0 mg/kg/injection, schedule: Q01DX009 (ip), vehicle: water
  T/C: 97 % of control
dose: 200.0 mg/kg/injection, schedule: Q01DX009 (ip), vehicle: water
  T/C: 101 % of control

## Cc1ccc2ccccc2n1.O=[N+]([O-])c1cc([N+](=O)[O-])c(O)c([N+](=O)[O-])c1
dose: 37.5 mg/kg/injection, schedule: Q01DX009 (ip), vehicle: saline with Tween-80
  T/C: 96 % of control [survivor count not shown]
dose: 75.0 mg/kg/injection, schedule: Q01DX009 (ip), vehicle: saline with Tween-80
  T/C: 100 % of control [survivor count not shown]
dose: 150.0 mg/kg/injection, schedule: Q01DX009 (ip), vehicle: saline with Tween-80
  T/C: 100 % of control [survivor count not shown]

## COc1ccc(N2CC=C(c3ccc(Cl)cc3)OP2(=O)Cl)cc1 (configuration not stated)
dose: 100.0 mg/kg/injection, schedule: Q04DX002 (ip), vehicle: saline with Tween-80
  T/C: 100 % of control
dose: 200.0 mg/kg/injection, schedule: Q04DX002 (ip), vehicle: saline with Tween-80
  T/C: 95 % of control
dose: 400.0 mg/kg/injection, schedule: Q04DX002 (ip), vehicle: saline with Tween-80
  T/C: 104 % of control

## COc1ccc(O)c2c(=O)c3c(OC)cc4c(c3oc12)[C@@H]1C=CO[C@@H]1O4
dose: 3.13 mg/kg/injection, schedule: Q01DX009 (ip), vehicle: saline
  T/C: 151 % of control
dose: 6.25 mg/kg/injection, schedule: Q01DX009 (ip), vehicle: saline
  T/C: 151 % of control
dose: 12.5 mg/kg/injection, schedule: Q01DX009 (ip), vehicle: saline
  T/C: 161 % of control
dose: 12.5 mg/kg/injection, schedule: Q04DX003 (ip), vehicle: saline with Tween-80
  T/C: 116 % of control
dose: 25.0 mg/kg/injection, schedule: Q01DX009 (ip), vehicle: saline
  T/C: 180 % of control
dose: 25.0 mg/kg/injection, schedule: Q04DX003 (ip), vehicle: saline with Tween-80
  T/C: 165 % of control
[6]
  T/C: 202 % of control
dose: 50.0 mg/kg/injection, schedule: Q04DX003 (ip), vehicle: saline with Tween-80
  T/C: 202 % of control
[7]
  T/C: 94 % of control
dose: 100.0 mg/kg/injection, schedule: Q04DX003 (ip), vehicle: saline with Tween-80
  T/C: 145 % of control
dose: 200.0 mg/kg/injection, schedule: Q04DX003 (ip), vehicle: saline with Tween-80
  T/C: 90 % of control

## CC(Cl)CSC(=O)SC(Cl)C(Cl)Cl (configuration not stated)
[6]
  T/C: 97 % of control [5 of 6 alive]
[7]
  T/C: 98 % of control
[8]
  T/C: 97 % of control [5 of 6 alive]

## O=[N+]([O-])c1c(Cl)c([N+](=O)[O-])c(Cl)c([N+](=O)[O-])c1Cl
[7]
  T/C: 116 % of control
[8]
  T/C: 107 % of control
dose: 400.0 mg/kg/injection, schedule: Q01DX009 (ip), vehicle: saline
  T/C: 99 % of control [5 of 6 alive]

## CC12CCC3(C)OCC(COC(=O)C(O)(c4ccccc4)C4CCCCC4)(CO1)N23 (configuration not stated)
dose: 50.0 mg/kg/injection, schedule: Q01DX009 (ip), vehicle: saline with Tween-80
  T/C: 105 % of control
dose: 100.0 mg/kg/injection, schedule: Q01DX009 (ip), vehicle: saline with Tween-80
  T/C: 100 % of control
dose: 200.0 mg/kg/injection, schedule: Q01DX009 (ip), vehicle: saline with Tween-80
  T/C: 122 % of control

## CN1CC=CCC1c1ccccc1.O=[N+]([O-])c1cc([N+](=O)[O-])c(O)c([N+](=O)[O-])c1
dose: 50.0 mg/kg/injection, schedule: Q01DX005 (ip), vehicle: saline with Tween-80
  T/C: 108 % of control [5 of 6 alive]
dose: 100.0 mg/kg/injection, schedule: Q01DX005 (ip), vehicle: saline with Tween-80
  T/C: 106 % of control [5 of 6 alive]
dose: 200.0 mg/kg/injection, schedule: Q01DX005 (ip), vehicle: saline with Tween-80
  survivor count: 0 of 6

## CC(C)OP(C)(=O)OC(C)C.CC(C)OP(C)(=O)OC(C)C.CC(C)OP(C)(=O)OC(C)C.CC(C)OP(C)(=O)OC(C)C.[Ni+2].[O-][Cl+3]([O-])([O-])O
dose: 50.0 mg/kg/injection, schedule: Q04DX003 (ip), vehicle: saline
  T/C: 109 % of control [survivor count not shown]
dose: 100.0 mg/kg/injection, schedule: Q04DX003 (ip), vehicle: saline
  T/C: 114 % of control [survivor count not shown]
dose: 200.0 mg/kg/injection, schedule: Q04DX003 (ip), vehicle: saline
  T/C: 94 % of control [survivor count not shown]

## CN([PH+](F)F)[PH+](F)F.CN([PH+](F)F)[PH+](F)F.CN([PH+](F)F)[PH+](F)F.[W]
dose: 12.5 mg/kg/injection, schedule: Q01DX001 (ip), vehicle: Klucel (hydroxypropylcellulose) (HPC)
  T/C: 106 % of control
dose: 25.0 mg/kg/injection, schedule: Q01DX001 (ip), vehicle: Klucel (hydroxypropylcellulose) (HPC)
  T/C: 103 % of control
dose: 50.0 mg/kg/injection, schedule: Q01DX001 (ip), vehicle: Klucel (hydroxypropylcellulose) (HPC)
  T/C: 110 % of control
dose: 100.0 mg/kg/injection, schedule: Q01DX001 (ip), vehicle: Klucel (hydroxypropylcellulose) (HPC)
  T/C: 114 % of control
dose: 200.0 mg/kg/injection, schedule: Q01DX001 (ip), vehicle: Klucel (hydroxypropylcellulose) (HPC)
  T/C: 99 % of control
dose: 400.0 mg/kg/injection, schedule: Q01DX001 (ip), vehicle: Klucel (hydroxypropylcellulose) (HPC)
  T/C: 100 % of control
